Record: PubChem BioAssay AID1508597 (Cure First, 2020)
Assay: 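Knock-downs altering ovarian cancer cell survival with or without PARP inhibitor rucaparib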 (primary screen). Cells: human ovarian carcinoma lines grown from tumours: OCI-P5x (papillary serous) and OCI-C5x (clear cell). Knock-down reagent: siRNA pool against human genes, 1.25 pmol siRNA per well. Time to read-out: 72 h or 96 h, depending on the cell culture. Conditions: rucaparib 20 µM (about IC30) or vehicle, present until read-out. Rucaparib or vehicle: Rucaparib. Cell line: OCI-C5x (clear cell). Read-out: 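Luminescent ATP-based viability assay read 72 or 96 h after transfection, depending on culture, given as normalised percent viability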. Scale: viability, normalised: higher = more viable cells remaining. Active means: 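Active when normalised viability falls below 80 percent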. Meaning of the calls: active = viability under 80%; inactive = viability 80% or more.
This is a random part of the about 2,100 reagents, under one of the conditions tested. 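Calls flag viability under 80% in either arm, not effects specific to rucaparib; the reference for percent is not stated.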 Some reagents were tested in more than one well and are listed for each. No sequences are given here. Not stated in the record: the 100% reference.

| gene symbol | technical replicate | viability, normalised (%) | Call |
| --- | --- | --- | --- |
| LPP | 1 | 57 | active |
| LPP | 2 | 61.4 | active |
| LPP | 3 | 68.3 | active |
| PMVK | 1 | 46.1 | active |
| PMVK | 2 | 47.8 | active |
| PMVK | 3 | 55.8 | active |
| RMI1 | 1 | 67.3 | active |
| RMI1 | 2 | 59.5 | active |
| RMI1 | 3 | 63.8 | active |
| PRKDC | 1 | 52.6 | active |
| PRKDC | 1 | 76.9 | active |
| PRKDC | 2 | 65.3 | active |
| PRKDC | 2 | 61.3 | active |
| PRKDC | 3 | 60.5 | active |
| PRKDC | 3 | 51.3 | active |
| MARK4 | 1 | 69.8 | active |
| MARK4 | 2 | 57.7 | active |
| MARK4 | 3 | 74.6 | active |
| MAP4K1 | 1 | 53.2 | active |
| MAP4K1 | 2 | 56.4 | active |
| MAP4K1 | 3 | 90.7 | inactive |

Targets above whose gene name begins with L or l (3):
| gene symbol | technical replicate | viability, normalised (%) | Call |
| --- | --- | --- | --- |
| LPP | 1 | 57 | active |
| LPP | 2 | 61.4 | active |
| LPP | 3 | 68.3 | active |

Next reagents follow.
| gene symbol | technical replicate | viability, normalised (%) | Call |
| --- | --- | --- | --- |
| PRKAR1B | 1 | 46.3 | active |
| PRKAR1B | 2 | 53 | active |
| PRKAR1B | 3 | 68.7 | active |
| NCOR2 | 1 | 39.2 | active |
| NCOR2 | 2 | 31 | active |
| NCOR2 | 3 | 38.7 | active |
| NTRK1 | 1 | 44.4 | active |
| NTRK1 | 1 | 52.6 | active |
| NTRK1 | 1 | 58.1 | active |
| NTRK1 | 2 | 62.8 | active |
| NTRK1 | 2 | 52.2 | active |
| NTRK1 | 2 | 40.1 | active |
| NTRK1 | 3 | 43.7 | active |
| NTRK1 | 3 | 78.8 | active |
| NTRK1 | 3 | 34.7 | active |
| CHD8 | 1 | 68.2 | active |
| CHD8 | 2 | 58.8 | active |
| CHD8 | 3 | 63.8 | active |
| PAXIP1 | 1 | 57.8 | active |
| PAXIP1 | 2 | 59.6 | active |
| PAXIP1 | 3 | 50.6 | active |
| DDX49 | 1 | 55.3 | active |
| DDX49 | 2 | 53.5 | active |
| DDX49 | 3 | 35.7 | active |
| CDKL1 | 1 | 67.6 | active |
| CDKL1 | 2 | 44.9 | active |
| CDKL1 | 3 | 64.5 | active |
| JAK2 | 1 | 42.3 | active |
| JAK2 | 1 | 70.9 | active |
| JAK2 | 2 | 66.8 | active |
| JAK2 | 2 | 37.9 | active |
| JAK2 | 3 | 38.4 | active |
| JAK2 | 3 | 68.9 | active |
| SALL1 | 1 | 41.7 | active |
| SALL1 | 2 | 44.8 | active |
| SALL1 | 3 | 33.6 | active |
